Some of the results follow. Single values are uncertain, as repeats are few or missing.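 Imaging used 1,536-well plates; nuclei positive for cleaved PARP by antibody were divided by total DNA-stained nuclei to yield the apoptosis fraction. Doses for screening kept most cells viable, and cell lines differ markedly in resting and induced cleaved-PARP levels.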

The test system of the experiment is LB2518-MEL. Put plainly: cleaved PARP positive nuclei fraction relative to DMSO control; melanoma cells; higher = more apoptosis. Particulars: library dose: low library concentration; 72 h.
For `Cn1c(=O)n(-c2ccc(C(C)(C)C#N)cc2)c2c3cc(-c4cnc5ccccc5c4)ccc3ncc21` + CN1CCN(c2ccc3nc(-c4c(N)c5c(F)cccc5[nH]c4=O)[nH]c3c2)CC1 [Dovitinib] (first compound 0.004 µM, partner dose 0.1 µM), the “cleaved PARP positive nuclei fraction” value was 112%.

As for `O=C(O)c1ccc2c(c1)nc(Nc1cccc(Cl)c1)c1ccncc12` + COc1ccc(Cl)c(Nc2nc3ccccc3nc2NS(=O)(=O)c2cccc(NC(=O)C(C)(C)N)c2)c1 [XL147] (first compound 0.4 µM, partner dose 0.8 µM), the “cleaved PARP positive nuclei fraction” value amounted to 106%.

Consider `CNC(=O)c1cc(Oc2ccc(NC(=O)Nc3ccc(Cl)c(C(F)(F)F)c3)cc2)ccn1` [sorafenib] + OCc1c[nH]c2ccccc12 [Indole-3-carbinol] (first compound 0.4 µM, partner dose 0.8 µM), for which the “cleaved PARP positive nuclei fraction” value was 106%.

With `CO[C@H]1C[C@@H]2CC[C@@H](C)[C@@](O)(O2)C(=O)C(=O)N2CCCC[C@H]2C(=O)O[C@H]([C@H](C)C[C@@H]2CC[C@@H](OCCO)[C@H](OC)C2)CC(=O)[C@H](C)/C=C(\C)[C@@H](O)[C@@H](OC)C(=O)[C@H](C)C[C@H](C)/C=C/C=C/C=C/1C` [everolimus] + O=C(O)c1ccc2c(c1)nc(Nc1cccc(Cl)c1)c1ccncc12 [CX4945] (first compound 0.02 µM, partner dose 0.4 µM), the “cleaved PARP positive nuclei fraction” value was 123%.

As to `Cn1c(=O)n(-c2ccc(C(C)(C)C#N)cc2)c2c3cc(-c4cnc5ccccc5c4)ccc3ncc21` + O=C(O)c1ccc2c(c1)nc(Nc1cccc(Cl)c1)c1ccncc12 [CX4945] (first compound 0.004 µM, partner dose 0.4 µM), the “cleaved PARP positive nuclei fraction” value was determined as 99.2%.

On to `CNC(=O)c1cc(Oc2ccc(NC(=O)Nc3ccc(Cl)c(C(F)(F)F)c3)cc2)ccn1` [sorafenib] + Cn1c(Nc2ccc(C(F)(F)F)cc2)nc2cc(Oc3ccnc(-c4ncc(C(F)(F)F)[nH]4)c3)ccc21 [CHIR265] (first compound 0.4 µM, partner dose 0.08 µM), for which the “cleaved PARP positive nuclei fraction” value is 292%.

Turning to `Cc1cc(Nc2cc(N3CCN(C)CC3)nc(/C=C/c3ccccc3)n2)n[nH]1` + NC1(c2ccc(-c3nc4ccn5c(=O)[nH]nc5c4cc3-c3ccccc3)cc2)CCC1 [MK2206] (first compound 0.04 µM, partner dose 0.4 µM), the “cleaved PARP positive nuclei fraction” value is 133%.

Regarding `CC(C)C[C@H](NC(=O)[C@H](Cc1ccccc1)NC(=O)c1cnccn1)B(O)O` [Bortezomib] + CS(=O)(=O)CCNCc1ccc(-c2ccc3ncnc(Nc4ccc(OCc5cccc(F)c5)c(Cl)c4)c3c2)o1 [lapatinib] (first compound 0.001 µM, partner dose 0.8 µM), the “cleaved PARP positive nuclei fraction” value amounted to 107%.

`CO[C@H]1C[C@@H]2CC[C@@H](C)[C@@](O)(O2)C(=O)C(=O)N2CCCC[C@H]2C(=O)O[C@H]([C@H](C)C[C@@H]2CC[C@@H](OCCO)[C@H](OC)C2)CC(=O)[C@H](C)/C=C(\C)[C@@H](O)[C@@H](OC)C(=O)[C@H](C)C[C@H](C)/C=C/C=C/C=C/1C` [everolimus] + Cn1nnc2c(C(N)=O)ncn2c1=O [temozolomide] (first compound 0.02 µM, partner dose 2 µM): the “cleaved PARP positive nuclei fraction” value worked out at 144%.

Turning to `O=C(O)[C@@H]1[O][Sb](=[O])([O][Sb]2(=[O])[O][C@H]([C@H](O)CO)[C@H](O)[C@H](C(=O)O)[O]2)[O][C@H]([C@H](O)CO)[C@@H]1O` (some centres not stated) [stibogluconate] + C#Cc1cccc(Nc2ncnc3cc(OCCOC)c(OCCOC)cc23)c1 [erlotinib] (first compound 2 µM, partner dose 0.8 µM), the “cleaved PARP positive nuclei fraction” value was found to be 65.3%.

On to `C=C(c1ccc(C(=O)O)cc1)c1cc2c(cc1C)C(C)(C)CCC2(C)C` [Bexarotene] + Nc1nc(F)nc2c1ncn2[C@@H]1O[C@H](CO)[C@@H](O)[C@@H]1O [fludarabine] (first compound 2 µM, partner dose 0.2 µM), for which the “cleaved PARP positive nuclei fraction” value was 107%.

As to `CNC(=O)c1cc(Oc2ccc(NC(=O)Nc3ccc(Cl)c(C(F)(F)F)c3)cc2)ccn1` [sorafenib] + C=CCNC1=C2C[C@@H](C)C[C@H](OC)[C@H](O)[C@@H](C)/C=C(\C)[C@H](OC(N)=O)[C@@H](OC)/C=C\C=C(/C)C(=O)NC(=CC1=O)C2=O [Tanespimycin] (first compound 0.4 µM, partner dose 0.002 µM), the “cleaved PARP positive nuclei fraction” value worked out at 115%.

(Values after the supplement of paper PMC4604168 (melanoma cell lines).)
